Data source: PubChem BioAssay AID1508597 (Cure First, 2020)

Test: 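Genes whose silencing sensitises or protects ovarian cancer cells against rucaparib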 (primary screen)
System: human ovarian carcinoma lines grown from tumours: OCI-P5x (papillary serous) and OCI-C5x (clear cell)
Reagent: siRNA pool against human genes, 1.25 pmol siRNA per well
Duration: 72 h or 96 h, depending on the cell culture
Treatment: rucaparib 20 µM (about IC30) or vehicle, present until read-out
Rucaparib or vehicle: Vehicle
Cell line: OCI-P5x (serous)
Measurement: 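ATP luminescence measured at 72 or 96 h according to the culture, then normalised and expressed as percent viability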
Scale: viability, normalised: higher = more viable cells remaining
Active means: 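Active when normalised viability falls below 80 percent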
Meaning of the calls: active = viability under 80%; inactive = viability 80% or more
Shown is an unselected part of the about 2,100 reagents, under one of the conditions tested. 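Calls flag viability under 80% in either arm, not effects specific to rucaparib; the reference for percent is not stated.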 Unmarked entries are inactive. The record does not give: the 100% reference.

For GUCY2C, technical replicate 1, the values are viability, normalised (%) = 60.5 (active).
GUCY2C, technical replicate 2 scored viability, normalised (%) = 69.7 (active).
For GUCY2C, technical replicate 3, the values are viability, normalised (%) = 65.9 (active).
For PRKAR2A, technical replicate 1 the deposit lists viability, normalised (%) = 101.
PRKAR2A, technical replicate 2 showed viability, normalised (%) = 96.6.
With PRKAR2A, technical replicate 3, the values are viability, normalised (%) = 90.1.
With PRKACG, technical replicate 1, the values are viability, normalised (%) = 115.
PRKACG, technical replicate 2 showed viability, normalised (%) = 119.
For PRKACG, technical replicate 3, the values are viability, normalised (%) = 96.1.
CAMK2B, technical replicate 1 gave viability, normalised (%) = 81.
For CAMK2B, technical replicate 2 the deposit lists viability, normalised (%) = 66.7 (active).
CAMK2B, technical replicate 3 showed viability, normalised (%) = 91.2.
With RIOK1, technical replicate 1, the values are viability, normalised (%) = 89.1.
With RIOK1, technical replicate 2, the values are viability, normalised (%) = 82.6.
RIOK1, technical replicate 3 scored viability, normalised (%) = 73.3 (active).
SP100, technical replicate 1 gave viability, normalised (%) = 57.9 (active).
With SP100, technical replicate 2 the deposit lists viability, normalised (%) = 60.5 (active).
With SP100, technical replicate 3, the values are viability, normalised (%) = 44.8 (active).
DDX47, technical replicate 1 gave viability, normalised (%) = 51.3 (active).
For DDX47, technical replicate 2 the deposit lists viability, normalised (%) = 54.1 (active).
For DDX47, technical replicate 3 the deposit lists viability, normalised (%) = 64.1 (active).
For FN3K, technical replicate 1 the deposit lists viability, normalised (%) = 86.7.
FN3K, technical replicate 2 gave viability, normalised (%) = 103.
FN3K, technical replicate 3 scored viability, normalised (%) = 98.
For POLD2, technical replicate 1, the values are viability, normalised (%) = 85.7.
For POLD2, technical replicate 2, the entry reads viability, normalised (%) = 89.4.
POLD2, technical replicate 3 gave viability, normalised (%) = 61.1 (active).
With CIT, technical replicate 1, the entry reads viability, normalised (%) = 87.6.
CIT, technical replicate 2 showed viability, normalised (%) = 97.1.
For CIT, technical replicate 3, the entry reads viability, normalised (%) = 89.2.
MET, technical replicate 1 showed viability, normalised (%) = 101.
MET, technical replicate 2 scored viability, normalised (%) = 83.7.
For MET, technical replicate 3, the values are viability, normalised (%) = 90.

In a second layout: results already given
{"target":"GUCY2C","technical replicate":"2","viability, normalised (%)":"69.7 (active)"}
{"target":"GUCY2C","technical replicate":"3","viability, normalised (%)":"65.9 (active)"}
{"target":"PRKAR2A","technical replicate":"1","viability, normalised (%)":101}
